Laboratory results published in US6825177B2, “Aryl phosphate derivatives of d4T with potent anti-viral activity” (Parker Hughes Institute, priority 2000, dated 2004).
At least one compound was matched to its structure with a doubt left.

Details: plasma pre-incubated with inhibitor at 37° C. for 30 minutes, 250 μM HI-113
Method: Plasma samples were pre-incubated with the esterase inhibitors paraoxon (final concentration of 0.1 mM), physostigmine (final concentration of 0.1 mM), and EDTA (final concentration of 1M) at 37° C. for 30 minutes. […] The data in Table 1 was the mean percent hydrolysis from two experiments.

SMILES: CNC(=O)Oc1ccc2c(c1)[C@]1(C)CCN(C)[C@@H]1N2C [physostigmine, reference compound]
- effect of esterase inhibitor on decomposition of HI-113 in plasma: partially inhibited
